# From PubChem BioAssay AID504834 (National Center for Advancing Translational Sciences (NCATS), 2011)
# Among all 320,000 compounds or so, about 22,000 (6.9%) were called active. Inconclusive results, whose numbers are uncertain, are shown with a selection of clear calls. Calls come from the whole dose curve; as a rule, active = well fitted inhibition curve with a large enough effect; inconclusive = small, poorly fitted or top-dose-only effect, or another doubt; inactive = no such curve, though single readings can be large or run the other way. Potencies of inconclusive entries are doubtful fits and often do not repeat.
# Assay: Primary qHTS for delayed death inhibitors of the malarial parasite plastid, 96 hour incubation
# Conditions: P. falciparum luciferase reporter growth; series mostly up to 28.7 µM
# In short: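 Cell-based qHTS: luciferase-tagged P. falciparum in erythrocytes (2% hematocrit, 0.05% parasitemia final) incubated with compounds for 96 hours, 37 C, 5% CO2; luciferase detection reagent then added and luminescence measured.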
# Potency is the fitted concentration of half-maximal effect.
row,Structure (SMILES),Potency
1,CCn1c(SC(C)C(=O)O)nnc1-c1cccnc1 (stereo unspecified),"inconclusive: 20.8 µM [inhibitor, partial curve, poor fit]"
2,COc1ccc(-c2cc(-c3ccc(Br)cc3)nc3ncnn23)cc1OC,"inconclusive: 18.5 µM [inhibitor, single point]"
3,CSc1nsc(NC(=O)OCc2ccc(Cl)cc2)n1,inactive
4,Cc1ccc2cc(C)c(NCCO)nc2c1,inactive
5,O=C(NCc1ccc(F)cc1)c1cc(S(=O)(=O)N2CCCCC2)ccc1N1CCOCC1,"inconclusive: 18.5 µM [inhibitor, single point]"
6,Nc1ccc(Nc2ccccc2)cc1,active: 9.28 µM
7,CN(C)c1ccnc(C(=O)O)c1,inactive
8,COc1ccc(CC(=O)Nc2nnc(CC(C)C)s2)cc1S(=O)(=O)N1CCOCC1,"inconclusive: 0.465 µM [inhibitor, full curve, poor fit]"
9,COc1ccc(CCNC(=O)CCN2C(=O)c3cccc4cccc(c34)C2=O)cc1OC,inactive
10,CC(=O)Oc1oc(-c2ccccc2)nc1/C=N/c1ccccn1,"inconclusive: 4.15 µM [inhibitor, partial curve, poor fit]"
11,COc1cc(C=O)c(Br)cc1OC1CCCC1,inactive
12,Cc1ccc(SC[C@H](Cc2ccccc2)N2CCN(CCc3ccccc3)CCC2=O)cc1,"inconclusive: 3.29 µM [inhibitor, full curve]"
13,NS(=O)(=O)c1ccc(N2CCOCC2)c(C(=O)NCc2ccc3c(c2)OCO3)c1,inactive
14,COc1ccc(S(=O)(=O)N2C3CCC2CC(NC(=O)NC2CCCCC2)C3)cc1 (stereo unspecified),"inconclusive: 10.4 µM [inhibitor, partial curve]"
15,COc1ccccc1Nc1cc(C(=O)N2CCc3ccccc3C2)c2ccccc2n1,"inconclusive: 4.15 µM [inhibitor, single point]"
16,CCOC(=O)Cc1cc(=O)n2[nH]c(-c3ccccc3)c(-c3ccccc3)c2n1,"inconclusive: 11.7 µM [inhibitor, single point]"
17,O=c1[nH]c(SCc2cccc(Cl)c2)nc2ccccc12,"inconclusive: 10.4 µM [inhibitor, single point]"
18,CC(C)OP(=O)(OC(C)C)C(NC(=O)c1ccc(Br)cc1)c1ccccc1 (stereo unspecified),"inconclusive: 11.7 µM [inhibitor, partial curve]"
19,COc1cc(NC(=O)c2cccs2)ccc1NC(=O)Cc1ccccc1,"inconclusive: 16.5 µM [inhibitor, single point]"
20,Cc1cc2oc(=O)ccc2cc1[N+](=O)[O-],inactive
21,COc1ccc2nc(N3CCCC(O)C3)c(C#N)cc2c1 (stereo unspecified),inactive

# Three structures from above, ordered by heavy-atom count, smallest number first.
row,Structure (SMILES),Potency
3,CSc1nsc(NC(=O)OCc2ccc(Cl)cc2)n1,inactive
19,COc1cc(NC(=O)c2cccs2)ccc1NC(=O)Cc1ccccc1,"inconclusive: 16.5 µM [inhibitor, single point]"
12,Cc1ccc(SC[C@H](Cc2ccccc2)N2CCN(CCc3ccccc3)CCC2=O)cc1,"inconclusive: 3.29 µM [inhibitor, full curve]"
